Results published in article PMC5103180.
No constants are given. Whether binding was seen depends on the method and setting. Binding seen in cells or lysates may run through a third protein. A result given as binding can be weak or reduced; the word gives no strength.

Target: T1, human band 4.2 (human) (UniProt P16452)
T1 sequence: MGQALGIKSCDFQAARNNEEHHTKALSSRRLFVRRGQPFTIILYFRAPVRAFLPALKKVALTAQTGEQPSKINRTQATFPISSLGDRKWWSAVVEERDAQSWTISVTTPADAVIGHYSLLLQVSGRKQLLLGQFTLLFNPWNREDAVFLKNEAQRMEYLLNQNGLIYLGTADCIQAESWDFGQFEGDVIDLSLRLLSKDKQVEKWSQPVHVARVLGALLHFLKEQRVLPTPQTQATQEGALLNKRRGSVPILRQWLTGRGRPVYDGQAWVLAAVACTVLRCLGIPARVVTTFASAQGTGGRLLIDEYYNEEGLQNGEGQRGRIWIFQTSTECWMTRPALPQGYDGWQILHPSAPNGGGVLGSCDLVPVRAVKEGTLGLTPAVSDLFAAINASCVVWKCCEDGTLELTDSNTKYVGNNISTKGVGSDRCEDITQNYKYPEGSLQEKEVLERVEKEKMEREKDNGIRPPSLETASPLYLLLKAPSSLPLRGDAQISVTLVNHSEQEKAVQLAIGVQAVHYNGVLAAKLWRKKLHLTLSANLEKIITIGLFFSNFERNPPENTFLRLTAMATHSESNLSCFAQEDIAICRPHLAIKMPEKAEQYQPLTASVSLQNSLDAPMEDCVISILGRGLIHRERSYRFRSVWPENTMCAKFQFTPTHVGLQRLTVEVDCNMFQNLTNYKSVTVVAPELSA
Test: co-IP; reverse Co-IP from 3D7 wild-type parasite lysate, cross-linked in 1% formaldehyde; α-band 4.2 antibodies cross-linked with BS3 to Dynabeads Protein G; Western blot with α-PFE1605w

Question: PFE1605w (endogenous, untagged) was tested. Which binding did it give?
Answer: Its binding is “binds”.
